This passage reports activity on this sequence (% of control luciferase) results from patent US6410329.

The data set addresses T1, VirD2 (Agrobacterium tumefaciens) (UniProt P06668).
T1 sequence (looked up, limits assumed): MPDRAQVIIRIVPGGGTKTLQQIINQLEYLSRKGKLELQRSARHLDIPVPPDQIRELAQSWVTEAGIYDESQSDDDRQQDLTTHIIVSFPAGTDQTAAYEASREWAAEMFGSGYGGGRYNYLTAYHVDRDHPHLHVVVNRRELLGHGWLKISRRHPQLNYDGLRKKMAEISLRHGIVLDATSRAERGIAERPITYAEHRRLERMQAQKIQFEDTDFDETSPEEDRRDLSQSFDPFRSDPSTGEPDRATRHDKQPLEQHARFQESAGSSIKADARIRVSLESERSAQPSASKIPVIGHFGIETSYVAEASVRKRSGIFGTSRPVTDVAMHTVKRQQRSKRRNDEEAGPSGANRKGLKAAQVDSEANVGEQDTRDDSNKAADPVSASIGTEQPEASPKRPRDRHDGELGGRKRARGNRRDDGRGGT
Nature of the data set: activity in cells. The note with it: tobacco, VirD2 alone; not significant; protein in cells; protein details: pTiA6; variant of T-DNA right border duplex, pRB(+)Luc; only the site is given; counted as no effect.

Where a protein sequence is shown, tags need not be part of it.

Sequence “ATCCGGCAGGATATATACCGTTGTAATTCTGCA (double strand) [T-DNA right border reversed, pRB(-)Luc]” showed an activity on this sequence (% of control luciferase) of 85.
